# Measurements from the supplement of paper PMC6411743.
# Protein sequences, listed by entry. Tags and fused reporters are not part of them. Lines headed by an entry give the natural chain unless they say otherwise; changes in a name come on top.
# UniProt P40121: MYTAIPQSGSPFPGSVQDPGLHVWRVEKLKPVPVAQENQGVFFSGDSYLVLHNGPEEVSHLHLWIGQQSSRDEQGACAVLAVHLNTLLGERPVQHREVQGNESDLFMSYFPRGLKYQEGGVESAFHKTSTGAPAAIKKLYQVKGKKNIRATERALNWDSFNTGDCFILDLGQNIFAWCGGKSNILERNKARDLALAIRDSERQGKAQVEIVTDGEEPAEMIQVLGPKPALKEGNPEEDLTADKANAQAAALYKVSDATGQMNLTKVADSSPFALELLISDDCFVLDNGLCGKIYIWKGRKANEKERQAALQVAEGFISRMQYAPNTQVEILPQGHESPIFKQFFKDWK
# UniProt P52294, whole entry: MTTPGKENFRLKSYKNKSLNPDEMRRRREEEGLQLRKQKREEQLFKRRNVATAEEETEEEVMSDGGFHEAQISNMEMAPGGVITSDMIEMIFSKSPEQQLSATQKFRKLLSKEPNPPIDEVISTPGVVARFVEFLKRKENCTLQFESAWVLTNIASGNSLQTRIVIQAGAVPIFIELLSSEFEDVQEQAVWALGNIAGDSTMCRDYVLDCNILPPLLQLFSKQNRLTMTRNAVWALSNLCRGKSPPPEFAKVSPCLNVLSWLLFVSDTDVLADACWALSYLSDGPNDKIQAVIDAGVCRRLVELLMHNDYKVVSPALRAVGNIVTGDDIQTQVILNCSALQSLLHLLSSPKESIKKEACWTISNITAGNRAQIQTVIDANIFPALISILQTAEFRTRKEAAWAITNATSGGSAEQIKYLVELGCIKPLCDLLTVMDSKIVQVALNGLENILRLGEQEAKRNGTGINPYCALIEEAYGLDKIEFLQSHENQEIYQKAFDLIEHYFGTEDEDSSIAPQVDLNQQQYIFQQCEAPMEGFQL
# UniProt P47985: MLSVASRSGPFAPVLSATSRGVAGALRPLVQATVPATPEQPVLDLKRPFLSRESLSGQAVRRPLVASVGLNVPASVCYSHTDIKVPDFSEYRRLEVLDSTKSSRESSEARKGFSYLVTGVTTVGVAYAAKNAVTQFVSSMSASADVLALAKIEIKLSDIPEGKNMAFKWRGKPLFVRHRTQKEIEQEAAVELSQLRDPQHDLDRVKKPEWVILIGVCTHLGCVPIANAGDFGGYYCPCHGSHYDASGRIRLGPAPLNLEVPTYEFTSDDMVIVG
# UniProt P36957: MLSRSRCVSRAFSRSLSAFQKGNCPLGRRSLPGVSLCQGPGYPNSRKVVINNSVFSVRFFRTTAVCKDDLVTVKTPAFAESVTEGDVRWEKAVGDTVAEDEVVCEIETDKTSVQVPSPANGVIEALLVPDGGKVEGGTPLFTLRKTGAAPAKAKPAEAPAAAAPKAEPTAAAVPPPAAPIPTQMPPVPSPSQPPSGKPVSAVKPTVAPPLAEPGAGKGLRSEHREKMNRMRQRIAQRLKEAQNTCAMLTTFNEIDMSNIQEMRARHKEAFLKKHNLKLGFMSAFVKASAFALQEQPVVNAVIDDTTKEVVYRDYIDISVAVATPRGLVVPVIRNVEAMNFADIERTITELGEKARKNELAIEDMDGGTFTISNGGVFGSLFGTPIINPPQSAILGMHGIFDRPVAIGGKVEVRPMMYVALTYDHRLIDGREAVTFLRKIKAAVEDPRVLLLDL
# UniProt P46199: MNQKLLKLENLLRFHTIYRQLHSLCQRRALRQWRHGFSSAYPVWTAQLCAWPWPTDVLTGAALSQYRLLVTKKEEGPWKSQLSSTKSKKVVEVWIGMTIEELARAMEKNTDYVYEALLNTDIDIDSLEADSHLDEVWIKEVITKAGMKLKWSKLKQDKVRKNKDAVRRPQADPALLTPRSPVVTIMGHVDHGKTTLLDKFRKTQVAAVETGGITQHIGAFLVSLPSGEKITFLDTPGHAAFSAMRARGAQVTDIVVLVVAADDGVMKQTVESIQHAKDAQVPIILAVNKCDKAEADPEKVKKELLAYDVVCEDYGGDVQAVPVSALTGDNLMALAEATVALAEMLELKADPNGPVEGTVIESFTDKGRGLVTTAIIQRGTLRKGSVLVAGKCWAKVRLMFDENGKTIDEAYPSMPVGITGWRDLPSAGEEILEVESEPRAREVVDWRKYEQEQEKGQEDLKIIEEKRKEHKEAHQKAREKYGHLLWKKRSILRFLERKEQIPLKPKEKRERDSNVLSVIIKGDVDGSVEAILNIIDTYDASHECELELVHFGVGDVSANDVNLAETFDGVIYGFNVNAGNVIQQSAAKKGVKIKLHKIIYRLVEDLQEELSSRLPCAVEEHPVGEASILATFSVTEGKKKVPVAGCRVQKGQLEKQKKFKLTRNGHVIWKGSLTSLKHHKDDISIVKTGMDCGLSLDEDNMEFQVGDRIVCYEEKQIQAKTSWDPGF
# UniProt P51178: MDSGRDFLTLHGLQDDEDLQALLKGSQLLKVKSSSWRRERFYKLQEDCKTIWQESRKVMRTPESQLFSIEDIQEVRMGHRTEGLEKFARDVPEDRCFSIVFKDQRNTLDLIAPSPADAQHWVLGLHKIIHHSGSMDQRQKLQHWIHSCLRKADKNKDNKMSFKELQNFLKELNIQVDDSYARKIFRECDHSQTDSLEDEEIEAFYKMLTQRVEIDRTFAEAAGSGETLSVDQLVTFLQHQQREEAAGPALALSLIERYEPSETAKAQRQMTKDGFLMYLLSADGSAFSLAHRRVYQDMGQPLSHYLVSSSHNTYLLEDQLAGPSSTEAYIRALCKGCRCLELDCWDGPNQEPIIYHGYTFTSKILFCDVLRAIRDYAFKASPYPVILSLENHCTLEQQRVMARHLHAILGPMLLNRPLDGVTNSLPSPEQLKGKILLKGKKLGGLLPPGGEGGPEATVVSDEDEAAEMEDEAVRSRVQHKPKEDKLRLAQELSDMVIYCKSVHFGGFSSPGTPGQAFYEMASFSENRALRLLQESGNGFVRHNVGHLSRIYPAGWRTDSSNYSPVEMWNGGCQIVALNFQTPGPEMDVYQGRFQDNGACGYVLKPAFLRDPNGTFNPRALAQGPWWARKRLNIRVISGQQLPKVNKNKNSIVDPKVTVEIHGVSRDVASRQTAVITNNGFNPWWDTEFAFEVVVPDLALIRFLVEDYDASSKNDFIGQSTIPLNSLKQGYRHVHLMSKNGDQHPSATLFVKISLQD
# UniProt P41250: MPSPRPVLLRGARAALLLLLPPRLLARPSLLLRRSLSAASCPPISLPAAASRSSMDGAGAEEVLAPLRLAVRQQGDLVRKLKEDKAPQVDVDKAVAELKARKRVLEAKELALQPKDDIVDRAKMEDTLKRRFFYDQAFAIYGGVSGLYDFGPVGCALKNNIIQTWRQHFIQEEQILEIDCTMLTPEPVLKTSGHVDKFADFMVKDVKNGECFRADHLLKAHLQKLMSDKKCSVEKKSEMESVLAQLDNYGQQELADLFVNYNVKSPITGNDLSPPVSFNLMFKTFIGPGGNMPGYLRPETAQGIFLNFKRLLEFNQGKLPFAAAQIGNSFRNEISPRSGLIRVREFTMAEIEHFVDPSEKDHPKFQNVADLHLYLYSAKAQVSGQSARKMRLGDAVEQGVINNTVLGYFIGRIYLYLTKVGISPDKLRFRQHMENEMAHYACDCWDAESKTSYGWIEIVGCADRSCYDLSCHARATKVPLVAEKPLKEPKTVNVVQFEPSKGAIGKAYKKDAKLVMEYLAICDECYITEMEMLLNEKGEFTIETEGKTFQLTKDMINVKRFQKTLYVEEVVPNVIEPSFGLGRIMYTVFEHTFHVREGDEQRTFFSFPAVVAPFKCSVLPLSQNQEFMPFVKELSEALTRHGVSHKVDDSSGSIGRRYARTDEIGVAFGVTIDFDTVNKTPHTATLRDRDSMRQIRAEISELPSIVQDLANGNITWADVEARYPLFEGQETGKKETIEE
# UniProt P43487, whole entry: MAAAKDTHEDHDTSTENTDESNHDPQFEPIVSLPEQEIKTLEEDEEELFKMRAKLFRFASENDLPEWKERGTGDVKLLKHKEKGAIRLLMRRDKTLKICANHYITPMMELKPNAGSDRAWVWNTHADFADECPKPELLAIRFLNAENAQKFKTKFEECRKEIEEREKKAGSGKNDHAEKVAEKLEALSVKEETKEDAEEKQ
# UniProt P50613: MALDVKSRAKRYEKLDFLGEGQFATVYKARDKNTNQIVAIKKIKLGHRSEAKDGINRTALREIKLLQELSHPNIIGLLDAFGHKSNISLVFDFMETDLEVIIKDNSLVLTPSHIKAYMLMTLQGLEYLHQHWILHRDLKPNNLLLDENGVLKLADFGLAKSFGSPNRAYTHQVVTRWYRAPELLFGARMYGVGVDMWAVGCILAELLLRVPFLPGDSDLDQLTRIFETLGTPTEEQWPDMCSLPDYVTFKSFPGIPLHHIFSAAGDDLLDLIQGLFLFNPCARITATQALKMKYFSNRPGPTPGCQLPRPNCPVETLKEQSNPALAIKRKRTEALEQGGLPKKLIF
# UniProt P50749: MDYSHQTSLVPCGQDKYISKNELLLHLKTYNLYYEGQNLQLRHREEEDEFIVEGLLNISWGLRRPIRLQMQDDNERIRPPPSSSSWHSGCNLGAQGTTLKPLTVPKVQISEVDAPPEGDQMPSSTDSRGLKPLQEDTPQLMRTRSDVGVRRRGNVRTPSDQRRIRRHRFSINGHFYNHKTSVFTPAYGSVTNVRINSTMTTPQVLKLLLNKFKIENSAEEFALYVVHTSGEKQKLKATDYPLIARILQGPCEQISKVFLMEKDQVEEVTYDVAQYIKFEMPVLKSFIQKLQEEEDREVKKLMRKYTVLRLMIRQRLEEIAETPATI
# UniProt P49840: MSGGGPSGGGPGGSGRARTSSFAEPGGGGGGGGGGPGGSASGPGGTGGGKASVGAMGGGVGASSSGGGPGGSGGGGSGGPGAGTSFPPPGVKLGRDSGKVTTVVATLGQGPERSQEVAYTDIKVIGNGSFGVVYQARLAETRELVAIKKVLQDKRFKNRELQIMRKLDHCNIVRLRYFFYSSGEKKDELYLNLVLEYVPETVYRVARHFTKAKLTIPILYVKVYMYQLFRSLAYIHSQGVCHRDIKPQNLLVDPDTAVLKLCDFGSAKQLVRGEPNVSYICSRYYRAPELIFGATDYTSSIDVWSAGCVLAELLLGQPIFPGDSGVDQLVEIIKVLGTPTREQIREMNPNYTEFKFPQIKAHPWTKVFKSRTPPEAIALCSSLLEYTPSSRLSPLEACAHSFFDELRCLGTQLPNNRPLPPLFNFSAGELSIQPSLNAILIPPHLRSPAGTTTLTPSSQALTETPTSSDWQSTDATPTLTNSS
# UniProt P39687: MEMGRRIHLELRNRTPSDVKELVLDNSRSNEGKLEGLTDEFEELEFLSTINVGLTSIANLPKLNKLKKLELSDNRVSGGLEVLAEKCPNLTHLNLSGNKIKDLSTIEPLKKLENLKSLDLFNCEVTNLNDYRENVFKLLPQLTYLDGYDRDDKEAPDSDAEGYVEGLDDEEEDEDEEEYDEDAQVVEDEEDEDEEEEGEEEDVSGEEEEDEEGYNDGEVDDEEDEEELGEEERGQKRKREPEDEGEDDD
# UniProt P43034: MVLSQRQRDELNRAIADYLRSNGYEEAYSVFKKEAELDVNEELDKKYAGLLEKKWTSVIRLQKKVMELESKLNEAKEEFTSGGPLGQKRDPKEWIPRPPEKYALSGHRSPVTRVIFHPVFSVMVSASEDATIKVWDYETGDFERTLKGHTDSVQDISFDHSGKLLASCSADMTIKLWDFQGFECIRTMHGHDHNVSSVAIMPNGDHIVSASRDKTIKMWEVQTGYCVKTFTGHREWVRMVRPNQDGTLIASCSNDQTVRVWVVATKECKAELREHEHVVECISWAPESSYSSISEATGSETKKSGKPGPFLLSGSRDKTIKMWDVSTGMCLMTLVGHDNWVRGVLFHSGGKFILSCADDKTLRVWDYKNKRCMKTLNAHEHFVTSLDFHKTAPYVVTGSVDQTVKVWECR
# UniProt P43378: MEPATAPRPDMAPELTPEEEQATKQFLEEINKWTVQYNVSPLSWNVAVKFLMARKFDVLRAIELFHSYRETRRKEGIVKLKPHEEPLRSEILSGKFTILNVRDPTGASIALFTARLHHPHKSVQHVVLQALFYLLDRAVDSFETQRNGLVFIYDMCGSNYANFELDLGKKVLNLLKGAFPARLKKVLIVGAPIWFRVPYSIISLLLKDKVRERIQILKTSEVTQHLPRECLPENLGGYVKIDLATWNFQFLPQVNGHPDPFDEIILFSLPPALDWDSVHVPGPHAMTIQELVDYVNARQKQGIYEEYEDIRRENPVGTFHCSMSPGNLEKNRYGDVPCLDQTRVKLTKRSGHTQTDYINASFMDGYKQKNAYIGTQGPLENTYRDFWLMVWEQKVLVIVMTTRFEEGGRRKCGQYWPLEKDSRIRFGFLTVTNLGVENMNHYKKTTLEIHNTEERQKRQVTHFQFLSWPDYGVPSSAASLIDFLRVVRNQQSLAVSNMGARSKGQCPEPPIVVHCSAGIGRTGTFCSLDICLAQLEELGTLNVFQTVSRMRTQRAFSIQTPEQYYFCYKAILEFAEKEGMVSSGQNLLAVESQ
# ± gives the standard deviation of the averaged measurements. The list shows a part of the results, in another mix than the full data. Small differences around the control level are noise.
# Compound: Nc1ncnc2c1ncn2[C@@H]1O[C@H](COP(=O)(O)OP(=O)(O)OP(=O)(O)O)[C@@H](O)[C@H]1O [adenosine triphosphate]
# Experiment: NP40-soluble protein abundance relative to vehicle (solubility fold change) (ratio); higher = more soluble protein in presence of ATP
# Outline: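 Values are fold changes against the detergent-processed vehicle, based on vsn-normalised intensities. Jurkat crude lysate was treated at eight concentrations from 0.1 to 10 mM (10 min at room temperature, then 3 min at 37 °C), solubilised with 0.8% NP40 and benzonase, ultracentrifuged and analysed by TMT-labelled LC-MS/MS over three independent experiments.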
Target,NP40-soluble protein abundance (concentration: 0.1mM),NP40-soluble protein abundance (concentration: 0.5mM)
RPL5 (UniProt P46777),0.966 ± 0.035,0.96 ± 0.043
CAPG (UniProt P40121),1.03 ± 0.039,1.05 ± 0.048
KPNA1 (UniProt P52294),1.03 ± 0.026,1.09 ± 0.063
CCT6A (UniProt P40227),1.1 ± 0.2,0.877 ± 0.19
UniProt P51149,1.05 ± 0.082,1.04 ± 0.059
UQCRFS1 (UniProt P47985),1.06 ± 0.097,1.06 ± 0.083
ARL2 (UniProt P36404),1.04 ± 0.084,1.06 ± 0.064
DLST (UniProt P36957),0.994 ± 0.11,1.04 ± 0.18
EIF4A3 (UniProt P38919),1.04 ± 0.093,1.06 ± 0.06
MTIF2 (UniProt P46199),1.05 ± 0.039,1.06 ± 0.05
UniProt P51178 and related entries,1.03 ± 0.051,1.04 ± 0.083
UniProt P41250,1.02 ± 0.066,1.02 ± 0.062
EPS15 (UniProt P42566),1 ± 0.04,0.998 ± 0.04
UniProt P43487 and related entries,0.892 ± 0.11,0.877 ± 0.14
UniProt P50613,1.01 ± 0.065,1.04 ± 0.049
RASSF2 (UniProt P50749),1.03 ± 0.037,1.03 ± 0.025
UniProt P49840,1.02 ± 0.018,1.04 ± 0.027
ANP32A (UniProt P39687),0.819 ± 0.13,0.821 ± 0.15
PAFAH1B1 (UniProt P43034),1.08 ± 0.098,1.02 ± 0.029
PTPN9 (UniProt P43378),1.06 ± 0.071,1.11 ± 0.078
UniProt P36507,1.01 ± 0.015,1.01 ± 0.055
UniProt P46934-4,1.04 ± 0.034,1.044 ± 0.0034
ARHGDIB (UniProt P52566),1.02 ± 0.059,1.04 ± 0.057
STT3A (UniProt P46977),1.07 ± 0.084,1.03 ± 0.056
CCT3 (UniProt P49368),0.981 ± 0.041,0.982 ± 0.071

# Random excerpt: two entries already listed.
Target,NP40-soluble protein abundance (concentration: 0.1mM),NP40-soluble protein abundance (concentration: 0.5mM)
PTPN9 (UniProt P43378),1.06 ± 0.071,1.11 ± 0.078
CCT6A (UniProt P40227),1.1 ± 0.2,0.877 ± 0.19
